PubChem BioAssay AID1159544 – Gurdon Institute | 2015
The deposit covers 41 reagents; shown is a random part of those that have a named target and a result. Of all reagents, 13 (32%) got an active call. 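Values are raw well means without normalisation; calls set replicate averages against a luciferase siRNA control; from a single screening run.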 Repeated entries: replicate wells of the same siRNA. No sequences are given here.

Test: 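How each human E2 shapes foci build-up and removal after double-strand breaks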 (primary screen)
Cell system: human U2OS osteosarcoma cells
Reagent: siRNA against human genes, about 60 nM siRNA
Duration: about 3 days from transfection to irradiation, then fixed 30 min to 24 h later
Challenge: ionising radiation, 2 Gy; fixed 30 min, 2 h, 8 h or 24 h later; untreated plates as reference
Measurement: 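FK2 staining of conjugated ubiquitin imaged confocally; automated foci detection within DAPI nuclear outlines gives an unnormalised well average of foci per cell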
Scale: FK2 foci per cell, 30 min post-IR: higher = more ubiquitin foci early after irradiation; FK2 foci per cell, unirradiated: higher = more ubiquitin foci without irradiation; FK2 foci per cell, 2 h post-IR: higher = more ubiquitin foci 2 h after irradiation; FK2 foci per cell, 24 h post-IR: higher = more ubiquitin foci persisting a day later
Call rule: 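a knock-down counts as active if its averaged foci count at 30 min post-irradiation lies over 40% above or below the luciferase siRNA average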

no.	gene knocked down	FK2 foci per cell, 30 min post-IR	FK2 foci per cell, unirradiated	FK2 foci per cell, 2 h post-IR	FK2 foci per cell, 24 h post-IR	call
1	UBE2R2	7.18	5.69	6.89	5.17	active
2	UBE2R2	7.33	5.34	6.5	5.31	active
3	UBE2L3	13.5	4.85	10.2	8.41	inactive
4	UBE2L3	13.9	4.6	9.88	8.51	inactive
5	UBE2O	3.9	2.24	2.4	3.56	active
6	UBE2O	3.35	2.27	2.6	3.01	active
7	UBE2Q1	13	6.36	9.76	6.58	inactive
8	UBE2Q1	12.3	6.63	9.78	6.51	inactive

Hits, among the entries above:
gene knocked down	FK2 foci per cell, 30 min post-IR	FK2 foci per cell, unirradiated	FK2 foci per cell, 2 h post-IR	FK2 foci per cell, 24 h post-IR	call
UBE2R2	7.18	5.69	6.89	5.17	active
UBE2R2	7.33	5.34	6.5	5.31	active
UBE2O	3.9	2.24	2.4	3.56	active
UBE2O	3.35	2.27	2.6	3.01	active

Continued.
no.	gene knocked down	FK2 foci per cell, 30 min post-IR	FK2 foci per cell, unirradiated	FK2 foci per cell, 2 h post-IR	FK2 foci per cell, 24 h post-IR	call
9	UBE2V2	11.7	5.02	7.12	4.89	inactive
10	UBE2V2	12.5	4.83	7.41	4.34	inactive
11	CDC34	5.87	3.46	5.7	5.02	active
12	CDC34	6.69	3.24	5.44	4.52	active
13	UEVLD	11.9	4.97	7.61	4.76	inactive
14	UEVLD	11.7	5.18	7.76	4.97	inactive
15	UBE2W	8.04	2.68	5.49	4.05	active
16	UBE2W	8.17	3.3	4.85	3.71	active
17	TSG101	10.4	4.96	8.49	3.96	inactive
18	TSG101	12	4.95	9.85	3.4	inactive
19	UBE2L6	3.37	1	2.05	0.333	active
20	UBE2L6	3.04	0.955	1.63	0.386	active
21	UBE2T	11.7	5.87	7.92	5.64	inactive
22	UBE2T	11.7	5.93	8.12	5.99	inactive
23	UBE2E2	18.1	7.91	13.6	6.18	inactive
24	UBE2E2	17.8	8.02	13.8	5.88	inactive
